Experimental data: PubChem BioAssay AID1259308 (NCATS, 2017)

Assay: 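Genes whose loss raises luciferase production in HEK293 cells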 (primary screen)
Cell system: human HEK293 embryonic kidney cells stably expressing firefly luciferase (HEK-CMV-Luc2-Hygro)
Reagent: single siRNA against human genes, 0.8 pmol siRNA per well
Timing: 72 h
Measured: 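Reporter luminescence and viable-cell signal on separate replicate plates, given as percent of non-targeting control and median/MAD z-scores, plus per-cell luciferase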
Scale: total luciferase, z-score and total luciferase, % of control: higher = more reporter protein produced
Hit rule: 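Active when the median/MAD z-score for overall luciferase is greater than 3; a gene was taken forward for validation with new siRNAs if at least two of its three siRNAs passed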
Meaning of the calls: active = raised luciferase; inactive = no rise
Shown is one part, drawn at random, of about 59,000 reagents tested. In the full data, about 1,510 (2.6%) were called active. 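Calls use total luciferase alone and ignore viability, so some active siRNAs may act by altering cell number.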 A number with no mark means an inactive call. Not all columns of the deposit are shown.

| gene | PubChem SID | total luciferase, z-score | total luciferase, % of control |
| --- | --- | --- | --- |
| PDHB (pyruvate dehydrogenase E1 subunit beta) | SID160714050 | 1.34 | 109 |
| PDHB (pyruvate dehydrogenase E1 subunit beta) | SID160714052 | 0.214 | 86.1 |
| PDHB (pyruvate dehydrogenase E1 subunit beta) | SID160714053 | 0.529 | 92.4 |
| PCED1A (PC-esterase domain containing 1A) | SID160747952 | 0.94 | 101 |
| PCED1A (PC-esterase domain containing 1A) | SID160747953 | -0.0251 | 81.4 |
| PCED1A (PC-esterase domain containing 1A) | SID160747954 | -0.511 | 71.7 |
| CATSPERT (catsper channel auxiliary subunit tau) | SID160732574 | 1.09 | 104 |
| CATSPERT (catsper channel auxiliary subunit tau) | SID160759081 | 1.37 | 109 |
| CATSPERT (catsper channel auxiliary subunit tau) | SID160759082 | -0.949 | 63 |
| SPATA6L (spermatogenesis associated 6 like) | SID160742849 | 0.12 | 84.3 |
| SPATA6L (spermatogenesis associated 6 like) | SID160742850 | 0.947 | 101 |
| SPATA6L (spermatogenesis associated 6 like) | SID160742851 | -0.481 | 72.3 |

Limited to “total luciferase, z-score” (2 entries from above):
SPATA6L (spermatogenesis associated 6 like) [SID160742849]: 0.12
SPATA6L (spermatogenesis associated 6 like) [SID160742850]: 0.947

The listing continues:
| gene | PubChem SID | total luciferase, z-score | total luciferase, % of control |
| --- | --- | --- | --- |
| MRGPRD (MAS related GPR family member D) | SID160755447 | 0.415 | 90.1 |
| MRGPRD (MAS related GPR family member D) | SID160755448 | -0.78 | 66.4 |
| MRGPRD (MAS related GPR family member D) | SID160755449 | -0.44 | 73.1 |
| CCDC142 (coiled-coil domain containing 142) | SID160752802 | -1.09 | 60.2 |
| CCDC142 (coiled-coil domain containing 142) | SID160752803 | -0.851 | 65 |
| CCDC142 (coiled-coil domain containing 142) | SID160752804 | -0.129 | 79.3 |
| NIT1 (nitrilase 1) | SID160778078 | -0.2 | 77.9 |
| NIT1 (nitrilase 1) | SID160778079 | 1.42 | 110 |
| NIT1 (nitrilase 1) | SID160778080 | 0.561 | 93 |
| RASAL2 (RAS protein activator like 2) | SID160722267 | 2.12 | 124 |
| RASAL2 (RAS protein activator like 2) | SID160722268 | -0.973 | 62.5 |
| RASAL2 (RAS protein activator like 2) | SID160722269 | -0.506 | 71.8 |
